Values of other authors, collected in patent US10653674B2, “Multisubstituted aromatic compounds as inhibitors of thrombin” (VERSEON CORPORATION, priority 2010, dated 2020).
For at least one compound, name, drawing or mass did not settle the structure.

Conditions: SPORTIF III and V combined; patients with non-valvular atrial fibrillation; cited from earlier work

In the case of CCOC(=O)CN[C@@H](C(=O)N1CC[C@H]1C(=O)NCc1ccc(/C(N)=N\O)cc1)C1CCCCC1 [ximelagatran], the “relative risk reduction in the composite outcome measure of all strokes, systemic embolic events, major bleeding, and death” value is given as 16%.
